Assay [1] addresses Recombinant human p53 (human) (UniProt P04637). The assay can be described thus: co-IP; about 100 ng of each recombinant protein in PBS, 0.05% Triton X100, 100 mM NaCl, 0.05% BSA, 1 h at 4°C; precipitated with DO1 (p53 antibody) agarose; blots for HDM2, LZAP, p53, GST; both purified.
The target is the same in assay [2]. The assay can be described thus: co-IP; as a2/a3 but in the presence of nutlin (HDM2 inhibitor); recombinant proteins; agarose beads conjugated with LZAP or p53 antibodies; blots for HDM2, LZAP, p53; both purified.

From paper PMC5520489 come the findings set out here.

These are yes or no findings as the source states them, for the method shown. Some binding calls cover weakened binding; strength is not graded here.

B1: Recombinant LZAP (protein, UniProt Q96JB5 1-506)
chain: MEDHQHVPIDIQTSKLLDWLVDRRHCSLKWQSLVLTIREKINAAIQDMPESEEIAQLLSGSYIHYFHCLRILDLLKGTEASTKNIFGRYSSQRMKDWQEIIALYEKDNTYLVELSSLLVRNVNYEIPSLKKQIAKCQQLQQEYSRKEEECQAGAAEMREQFYHSCKQYGITGENVRGELLALVKDLPSQLAEIGAAAQQSLGEAIDVYQASVGFVCESPTEQVLPMLRFVQKRGNSTVYEWRTGTEPSVVERPHLEELPEQVAEDAIDWGDFGVEAVSEGTDSGISAEAAGIDWGIFPESDSKDPGGDGIDWGDDAVALQITVLEAGTQAPEGVARGPDALTLLEYTETRNQFLDELMELEIFLAQRAVELSEEADVLSVSQFQLAPAILQGQTKEKMVTMVSVLEDLIGKLTSLQLQHLFMILASPRYVDRVTEFLQQKLKQSQLLALKKELMVQKQQEALEEQAALEPKLDLLLEKTKELQKLIEADISKRYSGRPVNLMGTSL
Turning to B1, the binding result in assay [1] and in assay [2] was “binds” each time.
